The list is a part of this screen's results and no random one: it gathers tests that were run many times, whatever their T/C, doses with no T/C, and many T/C values between a quarter and a half above the control. Other doses and runs of a compound stand elsewhere. T/C is the treated group as % of the vehicle group. Some entries give survivors of the animals treated and no T/C: the source holds a T/C of zero for them, seemingly a mark for toxic or unscored doses. Some doses without a T/C left all or most animals alive at the check, yet need not have been tolerated: survival well below the control is almost never listed, so the zero probably covers shortened survival too. Counts of survivors are from the toxicity check (mostly the fifth day) where no day follows; animals may have died later. Schedule codes are those of the source, taken here to give the interval after Q, in days (D) or hours (H), and the number of doses after X. Some doses were run more than once; their values stand side by side, smallest first. Where survival is the endpoint, the PubChem record calls one and a half times the control and up active, and a quarter to a half above the control has no call in these data; cut-offs in other NCI protocols can differ. Some T/C values carry the count of animals alive at the toxicity check (mostly the fifth day); without a count, all were alive then. Brackets with × count equal records among those shown.
System: L1210 leukemia ip in BDF1 mice, survival T/C
Assay: NCI In Vivo Anticancer Drug Screen. Data for tumor model L1210 Leukemia (intraperitoneal) in B6D2F1 (BDF1) mice
Conditions: T/C endpoint: mean survival time, higher T/C = longer survival
[1] = dose: 400.0 mg/kg/injection, schedule: Q04DX002 (ip), vehicle: saline
[2] = dose: 100.0 mg/kg/injection, schedule: Q01DX001 (ip), vehicle: saline
[3] = dose: 400.0 mg/kg/injection, schedule: Q01DX001 (ip), vehicle: carboxymethylcellulose (CMC)
[4] = dose: 200.0 mg/kg/injection, schedule: Q01DX001 (ip), vehicle: carboxymethylcellulose (CMC)
[5] = dose: 80.0 mg/kg/injection, schedule: Q01DX001 (ip), vehicle: saline
[6] = dose: 200.0 mg/kg/injection, schedule: Q01DX001 (ip), vehicle: saline
[7] = dose: 400.0 mg/kg/injection, schedule: Q01DX001 (ip), vehicle: saline
[8] = dose: 400.0 mg/kg/injection, schedule: Q04DX003 (ip), vehicle: saline
[9] = dose: 100.0 mg/kg/injection, schedule: Q04DX003 (ip), vehicle: saline
[10] = dose: 200.0 mg/kg/injection, schedule: Q04DX003 (ip), vehicle: saline
[11] = dose: 100.0 mg/kg/injection, schedule: Q01DX009 (ip), vehicle: saline with Tween-80
[12] = dose: 200.0 mg/kg/injection, schedule: Q01DX009 (ip), vehicle: saline with Tween-80

Cc1ccccc1/C=N/Nc1nnc(N/N=C/c2ccccc2C)c2ccccc12
survivor count (dose: 50.0 mg/kg/injection, schedule: Q01DX001 (ip), vehicle: carboxymethylcellulose (CMC)): 2 of 4

COc1cc(OC)c(OC)cc1CNC1CCCCCCC1
survivor count (dose: 200.0 mg/kg/injection, schedule: Q04DX002 (ip), vehicle: saline): 1 of 3
survivor count [1]: 0 of 3

Cc1[nH]c2ccc(N=CN(C)C)cc2c1C
survivor count (dose: 200.0 mg/kg/injection, schedule: Q04DX002 (ip), vehicle: saline with Tween-80): 0 of 3
survivor count (dose: 400.0 mg/kg/injection, schedule: Q04DX002 (ip), vehicle: saline with Tween-80): 0 of 3

CCC[CH2][Pb]([CH2]CCC)([CH2]CCC)[N](C#N)C#N
survivor count (dose: 200.0 mg/kg/injection, schedule: Q04DX002 (sc), vehicle: olive oil, sesame oil, peanut oil): 2 of 3
survivor count (dose: 400.0 mg/kg/injection, schedule: Q04DX002 (sc), vehicle: olive oil, sesame oil, peanut oil): 2 of 3

Oc1ccc2ccccc2c1N=Nc1ccc(F)cc1
survivor count (dose: 400.0 mg/kg/injection, schedule: Q01DX009 (ip), vehicle: carboxymethylcellulose (CMC)): 6 of 6

CCOP(=O)(NC1C2CCC(C2)C1C)OCC (stereo not given)
survivor count [2]: 0 of 6

[I][Bi]([I])[I]
T/C (dose: 100.0 mg/kg/injection, schedule: Q01DX001 (ip), vehicle: water): 95, 101 (2×), 103 % of control
T/C (dose: 200.0 mg/kg/injection, schedule: Q01DX001 (ip), vehicle: water): 97 (3×) and 101 % of control
survivor count [3]: 1 of 4
T/C (dose: 400.0 mg/kg/injection, schedule: Q01DX001 (ip), vehicle: water): 95, 97 (2×), 101 % of control

CCCCCCCCCCNC(=O)C[n+]1cccc(C(=O)Nc2ccc(Cl)cc2)c1
survivor count (dose: 25.0 mg/kg/injection, schedule: Q01DX009 (ip), vehicle: acetone): 3 of 6
survivor count (dose: 50.0 mg/kg/injection, schedule: Q04DX003 (ip), vehicle: saline): 2 of 6
survivor count (dose: 100.0 mg/kg/injection, schedule: Q04DX003 (ip), vehicle: acetone): 0 of 6
survivor count (dose: 200.0 mg/kg/injection, schedule: Q04DX003 (ip), vehicle: acetone): 0 of 6
survivor count (dose: 400.0 mg/kg/injection, schedule: Q04DX003 (ip), vehicle: acetone): 0 of 6

N=c1ccccn1CC(O)COc1ccccc1 (stereo not given)
survivor count [4]: 0 of 4
survivor count [3]: 0 of 4

CC1(C)N=C(N)N=C(N)N1c1cccc(OCCCOc2cccc(NC(=O)CBr)c2)c1
survivor count [5]: 3 of 6
survivor count [2]: 1 of 6
survivor count [6]: 0 of 6
survivor count [7]: 0 of 6

O=C(CBr)c1ccc2c3c(cccc13)C=C2
survivor count (dose: 150.0 mg/kg/injection, schedule: Q01DX001 (ip), vehicle: saline): 2 of 6
survivor count (dose: 300.0 mg/kg/injection, schedule: Q01DX001 (ip), vehicle: saline): 0 of 6

COC(=O)CC1(O)C=CC(=O)C=C1
survivor count (dose: 50.0 mg/kg/injection, schedule: Q01DX009 (ip), vehicle: saline): 2 of 4
survivor count (dose: 100.0 mg/kg/injection, schedule: Q01DX009 (ip), vehicle: saline): 0 of 4

CCOC(OCC)C(=O)NNC(C)C
survivor count (dose: 200.0 mg/kg/injection, schedule: Q01DX009 (ip), vehicle: saline): 6 of 6
survivor count (dose: 400.0 mg/kg/injection, schedule: Q01DX009 (ip), vehicle: saline): 1 of 6

CC1(C)N=C(N)N=C(N)N1c1ccc(CN)cc1
survivor count [8]: 3 of 6

CC(C)Cn1cnc2c(Sc3c([N+](=O)[O-])ncn3C)nc(N)nc21
T/C (dose: 17.7 mg/kg/injection, schedule: Q01DX001 (ip), vehicle: carboxymethylcellulose (CMC)): 144 % of control
T/C (dose: 50.0 mg/kg/injection, schedule: Q01DX015 (ip), vehicle: carboxymethylcellulose (CMC)): 132 % of control
T/C (dose: 266.0 mg/kg/injection, schedule: Q01DX001 (ip), vehicle: carboxymethylcellulose (CMC)): 137 % of control
T/C [3]: 138 % of control

CCCCOC(=O)c1[nH]cnc1N
survivor count [7]: 3 of 6

O=S(=O)(O)CS(=O)(=O)O
survivor count [5]: 1 of 6
survivor count [2]: 1 of 6
survivor count [6]: 0 of 6
survivor count [7]: 0 of 6

CCCCNC(C)(C)CO
survivor count [9]: 3 of 6
survivor count [10]: 1 of 6
survivor count [8]: 0 of 6

O=S1(=O)C=C(Br)C1
survivor count (dose: 200.0 mg/kg/injection, schedule: Q04DX002 (ip), vehicle: Klucel (hydroxypropylcellulose) (HPC)): 1 of 3
survivor count (dose: 400.0 mg/kg/injection, schedule: Q04DX002 (ip), vehicle: Klucel (hydroxypropylcellulose) (HPC)): 2 of 3

O=S(=O)(OCCCl)c1ccc(Cl)c(S(=O)(=O)OCCCl)c1
survivor count (dose: 200.0 mg/kg/injection, schedule: Q04DX003 (ip), vehicle: saline with Tween-80): 1 of 3
survivor count (dose: 400.0 mg/kg/injection, schedule: Q04DX003 (ip), vehicle: saline with Tween-80): 0 of 3

CC1(C)C2CCC(=O)OC1CC2 (stereo not given)
survivor count [5]: 1 of 4

Clc1ccc2c(NCCN3CCCCCC3)nc(C(Cl)(Cl)Cl)nc2c1
survivor count (dose: 300.0 mg/kg/injection, schedule: Q01DX001 (ip), vehicle: other): 0 of 6

NC1CCC(OC(=O)C23CC4CC(CC(C4)C2)C3)CC1 (stereo not given)
survivor count (dose: 200.0 mg/kg/injection, schedule: Q01DX001 (ip), vehicle: saline with Tween-80): 1 of 6
survivor count (dose: 400.0 mg/kg/injection, schedule: Q01DX001 (ip), vehicle: saline with Tween-80): 0 of 6

C/C=C/CC(C/C=C/C)C1CC[N-]CC1.C/C=C/CC(C/C=C/C)C1CC[N-]CC1.[Cl][Pt+2]([Cl])([Cl])[Cl]
survivor count (dose: 25.0 mg/kg/injection, schedule: Q01DX009 (ip), vehicle: other): 5 of 6
survivor count (dose: 50.0 mg/kg/injection, schedule: Q01DX009 (ip), vehicle: other): 1 of 6

CSc1ccc(NC(=O)Oc2ccc3c(C)cc(=O)oc3c2)cc1
T/C [11]: 90, 90 [5 of 6 alive], 97, 99 % of control
survivor count [12]: 4 of 6 and 3 of 3
survivor count (dose: 400.0 mg/kg/injection, schedule: Q01DX009 (ip), vehicle: saline with Tween-80): 3 of 3 and 6 of 6

COc1ccc(OCCC(=O)O)cc1
survivor count [7]: 6 of 6

CN(C)C(=O)c1cc[n+](Cc2ccc(Cl)c(Cl)c2)cc1
survivor count [10]: 1 of 6
survivor count [8]: 0 of 6

Cc1c(NC(=O)CCl)c(=O)n(-c2ccccc2)n1C
survivor count (dose: 400.0 mg/kg/injection, schedule: Q01DX009 (ip), vehicle: Klucel (hydroxypropylcellulose) (HPC)): 3 of 6

C[N+](C)(C)CCOC(=O)c1cccc(CBr)c1CBr
survivor count [9]: 3 of 6
survivor count [10]: 0 of 6
survivor count [8]: 0 of 6

C/C(=N\[N+](C)(C)C)c1ccc(C)cc1
survivor count [6]: 0 of 6
survivor count [7]: 0 of 6

CCN(CC)CCOc1ccc(C=O)cc1
survivor count [1]: 3 of 3

COC(COS(=O)(=O)c1ccc(Br)cc1)(c1ccccc1)c1ccccc1
survivor count [11]: 3 of 3
survivor count [12]: 3 of 3

C(=N\c1nncs1)/Nc1nncs1
T/C (dose: 60.0 mg/kg/injection, schedule: Q01DX015 (ip), vehicle: carboxymethylcellulose (CMC)): 129 % of control
survivor count (dose: 90.0 mg/kg/injection, schedule: Q01DX015 (ip), vehicle: carboxymethylcellulose (CMC)): 4 of 6
survivor count (dose: 135.0 mg/kg/injection, schedule: Q01DX015 (ip), vehicle: carboxymethylcellulose (CMC)): 5 of 6
survivor count [4]: 2 of 4

OCCC1CNCCN1.[Cl][Pd]([Cl])([Cl])[Cl] (stereo not given)
survivor count (dose: 400.0 mg/kg/injection, schedule: Q01DX001 (ip), vehicle: DMSO): 1 of 3

NC(=O)c1cn[nH]c1N
survivor count (dose: 200.0 mg/kg/injection, schedule: Q01DX009 (ip), vehicle: Klucel (hydroxypropylcellulose) (HPC)): 6 of 6

O=[N+]([O-])c1cc(Cl)ccc1S(=O)(=O)CC(Cl)c1ccccc1 (stereo not given)
survivor count (dose: 100.0 mg/kg/injection, schedule: Q01DX009 (ip), vehicle: acetone): 6 of 6

Reference: PubChem BioAssay AID248 (DTP/NCI, 2004)
